Values from PubChem BioAssay AID743454 (Peter MacCallum Cancer Centre, 2014)

- Screen: 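Genes whose loss kills vorinostat-resistant colon cancer cells under vorinostat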 (primary screen)
- System: human HCT116-VR colon cancer cells, selected for vorinostat resistance
- Knock-down reagent: siRNA pool against human genes, 40 nM siRNA pool
- Time to read-out: vorinostat for 24 h, read-out about 72 h after transfection
- Treatment: vorinostat at 2.5 µM final
- Measured: 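Two measures, CellTiter-Fluor viability and luminescent caspase 3/7 activity, each as fold change against same-plate mock wells, mean of duplicates, then screen-wide robust z-score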
- Reading the numbers: viability robust z-score: higher = more viable cells than screen typical; caspase robust z-score: higher = more caspase 3/7 activity than screen typical
- Rule for the call: 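Hits are knock-downs in viability class RV1/RV2 or caspase class CA1/CA2, excluding ones that killed cells in the no-drug cell-count arm; hits then retested with single siRNAs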
Shown is a random part of about 18,000 reagents tested. Of all reagents, 450 (2.5%) were called active. 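Single biological run; no consistent viability z cut-off exists, so the class columns, not z-scores, define the calls.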 No sequences are given here.

Gene	viability hit class	caspase hit class	viability robust z-score	caspase robust z-score	outcome
SGCZ	no change	no change	-1.13	0.25	inactive
FOLR2	no change	no change	-0.92	0.4	inactive
PSMB8	no change	no change	-1.39	1.77	inactive
NHP2	no change	no change	1.12	0.64	inactive
DLG1	no change	no change	-0.22	-0.32	inactive
ZBTB11	no change	no change	1.52	1.38	inactive
KCNN4	no change	no change	0.95	4.58	inactive
KRTAP19-5	no change	no change	0.7	2.01	inactive
NOL6	no change	no change	-2.6	-0.94	inactive
LMNTD2	no change	no change	0.18	3.52	inactive
ESX1	no change	no change	-0.34	0.65	inactive
C1QA	no change	no change	-2.63	3.76	inactive
HTR2C	no change	no change	0.34	0.57	inactive
RAP1GAP	no change	no change	0.29	-0.74	inactive
TIMELESS	no change	no change	1.15	1.62	inactive
HAND2	no change	no change	-1.31	-0.4	inactive
ABCA8	no change	no change	-0.1	0.12	inactive
FBXO28	no change	no change	0.03	0.97	inactive
TIMM8B	no change	no change	0.74	0.96	inactive
INTS6	no change	CA1 (caspase activation)	-0.08	9.39	active
ADAMTS3	no change	no change	0.76	-0.92	inactive
OR52J3	no change	no change	-0.27	3.37	inactive
ABCD4	no change	no change	-0.55	0.19	inactive
TMEM202	no change	no change	-0.5	-0.5	inactive
DIRC1	no change	no change	0.28	-0.33	inactive
NKAIN2	no change	no change	0.36	-1	inactive
OR2T4	no change	no change	-0.25	0.26	inactive
BTG1	no change	no change	1.1	4.7	inactive
OR6K2	no change	no change	0.36	-0.9	inactive
GRB10	no change	no change	-2.27	2.05	inactive
CCZ1B	no change	no change	1.34	-0.35	inactive
ELMOD2	no change	no change	0.48	1.9	inactive

Targets listed so far whose gene name begins with A or a (3):
Gene	viability hit class	caspase hit class	viability robust z-score	caspase robust z-score	outcome
ABCA8	no change	no change	-0.1	0.12	inactive
ADAMTS3	no change	no change	0.76	-0.92	inactive
ABCD4	no change	no change	-0.55	0.19	inactive

The list goes on.
Gene	viability hit class	caspase hit class	viability robust z-score	caspase robust z-score	outcome
DMTF1	no change	no change	-0.66	-0.62	inactive
KCNE4	no change	no change	-0.08	-0.86	inactive
IFNA4	no change	no change	1.03	-0.08	inactive
OSTN	no change	no change	-0.37	1.57	inactive
RNF148	no change	no change	-0.19	0.8	inactive
TOP3B	no change	no change	-0.35	0.29	inactive
UBL4B	no change	no change	-0.32	0.94	inactive
RAB5A	no change	no change	-0.64	2.02	inactive
RBMX	no change	no change	-0.81	1.47	inactive
TSHR	no change	no change	0.9	-0.66	inactive
STON2	no change	no change	-3.08	1.74	inactive
CSNK1G2	no change	no change	1.08	0.87	inactive
GBA3	no change	no change	0.52	-0.88	inactive
PAFAH1B2	no change	no change	0.36	1.62	inactive
FGD3	no change	no change	-0.76	0.55	inactive
ACOT6	no change	no change	-0.14	-0.77	inactive
TLR7	no change	no change	-0.82	-1.13	inactive
SMARCAL1	no change	no change	-0.66	-0.88	inactive
KCNH4	no change	no change	0.7	-0.32	inactive
PDP2	no change	no change	-0.84	-0.65	inactive
TSPAN17	no change	no change	-0.44	0.49	inactive
SLC5A12	no change	no change	1.81	-0.42	inactive
WIPF2	no change	no change	-2.71	2.54	inactive
ZNF565	no change	no change	-0.44	2.43	inactive
APOL2	no change	no change	-0.22	-0.17	inactive
